Results are given in words; binding and its absence hold for the method and conditions named. Binding seen in cells or lysates may run through a third protein. Tags and fused reporters may be left off the sequences shown.

This test concerns the target FLAG-tagged nucleolin Ncl-ΔRGG (deletion of the RGG domain) (mouse). Put plainly: co-IP; NIH3T3 cells co-transfected with V5-tagged G0S2 and FLAG-tagged nucleolin constructs, lysed after 48 h; 150 mM NaCl, 50 mM Tris pH 8, 1% Triton X-100; immunoblot.

B1: V5-tagged G0S2 (G0/G1 switch gene 2), murine, full length (protein, UniProt Q61585 1-103)
chain: MESVQELIPLAKEMMAQKPRGKLVKLYVLGSVLALFGVVLGLVETVCSPFTAASRLRDQEAAVVELREACEQQSLHKQALLAGGKAQEATLCSRALSLRQHAS
B1: the binding entry was “no binding”.

The values are drawn from article PMC3365016.
